Data: paper PMC8604404, “Kinesin-binding protein remodels the kinesin motor to prevent microtubule binding” (Science Advances, 2021)
These are yes or no findings as the source states them, for the method shown. A result given as binding can be weak or reduced; the word gives no strength. Where a sequence is shown, tags or fusion partners need not be part of it.

The chains behind the UniProt entries cited, without tags or fusion partners. Where a name states a change or a piece, a line headed by the entry shows the natural chain unless it says otherwise.
UniProt Q96EK5: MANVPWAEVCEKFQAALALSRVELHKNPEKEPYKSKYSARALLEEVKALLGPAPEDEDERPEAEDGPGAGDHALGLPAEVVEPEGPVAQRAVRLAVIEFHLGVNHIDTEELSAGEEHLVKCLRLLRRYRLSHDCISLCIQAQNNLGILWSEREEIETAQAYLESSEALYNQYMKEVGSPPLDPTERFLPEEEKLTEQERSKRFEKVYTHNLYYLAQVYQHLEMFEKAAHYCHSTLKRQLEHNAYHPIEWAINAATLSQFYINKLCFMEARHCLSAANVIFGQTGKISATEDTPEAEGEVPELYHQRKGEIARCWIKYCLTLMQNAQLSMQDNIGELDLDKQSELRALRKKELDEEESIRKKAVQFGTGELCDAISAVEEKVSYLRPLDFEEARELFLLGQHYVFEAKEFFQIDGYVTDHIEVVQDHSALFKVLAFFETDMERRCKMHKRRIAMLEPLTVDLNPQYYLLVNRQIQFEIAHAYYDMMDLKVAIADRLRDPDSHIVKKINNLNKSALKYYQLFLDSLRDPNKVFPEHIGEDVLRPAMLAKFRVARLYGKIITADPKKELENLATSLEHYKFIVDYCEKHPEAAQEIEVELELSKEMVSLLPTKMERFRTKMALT

Target: T1, His6-KIF15-N375 (KIF15 motor domain, amino acids 1 to 375) (human) (UniProt Q9NS87)
T1 sequence: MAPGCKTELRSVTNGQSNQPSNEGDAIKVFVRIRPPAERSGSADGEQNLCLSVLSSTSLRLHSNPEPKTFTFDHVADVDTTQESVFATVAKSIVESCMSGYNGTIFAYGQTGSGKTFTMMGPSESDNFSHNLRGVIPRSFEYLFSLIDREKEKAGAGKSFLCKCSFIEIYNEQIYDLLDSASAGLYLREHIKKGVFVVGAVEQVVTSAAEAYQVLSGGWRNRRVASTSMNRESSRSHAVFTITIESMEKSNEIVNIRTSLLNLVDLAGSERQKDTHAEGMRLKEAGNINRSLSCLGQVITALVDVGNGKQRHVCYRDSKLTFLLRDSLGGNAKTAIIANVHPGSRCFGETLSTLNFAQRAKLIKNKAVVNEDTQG
Test: pull-down; His6-kinesin motor domain immobilised on Ni-NTA agarose, 20 ug KIFBP protein or GST in 200 ul, 10 mM Hepes pH 7.4, 50 mM KCl, 10 mM imidazole, 30 min at 4°C; Coomassie gel, ratio of KIFBP to kinesin in the pellet; both purified

binding: binds
Substance: KIFBP-HP9b^m (helix pair 9b mutant of KIFBP) (from UniProt Q96EK5)
